These are yes or no findings as the source states them, for the method shown. In cells and extracts the contact can be indirect. A yes stands for co-enrichment or nearness to the bait. Other partners may have been found.
B1: Myosin binding protein C, fast type (protein, UniProt Q14324 1-1141)
chain: MPEAKPAAKKAPKGKDAPKGAPKEAPPKEAPAEAPKEAPPEDQSPTAEEPTGVFLKKPDSVSVETGKDAVVVAKVNGKELPDKPTIKWFKGKWLELGSKSGARFSFKESHNSASNVYTVELHIGKVVLGDRGYYRLEVKAKDTCDSCGFNIDVEAPRQDASGQSLESFKRTSEKKSDTAGELDFSGLLKKREVVEEEKKKKKKDDDDLGIPPEIWELLKGAKKSEYEKIAFQYGITDLRGMLKRLKKAKVEVKKSAAFTKKLDPAYQVDRGNKIKLMVEISDPDLTLKWFKNGQEIKPSSKYVFENVGKKRILTINKCTLADDAAYEVAVKDEKCFTELFVKEPPVLIVTPLEDQQVFVGDRVEMAVEVSEEGAQVMWMKDGVELTREDSFKARYRFKKDGKRHILIFSDVVQEDRGRYQVITNGGQCEAELIVEEKQLEVLQDIADLTVKASEQAVFKCEVSDEKVTGKWYKNGVEVRPSKRITISHVGRFHKLVIDDVRPEDEGDYTFVPDGYALSLSAKLNFLEIKVEYVPKQEPPKIHLDCSGKTSENAIVVVAGNKLRLDVSITGEPPPVATWLKGDEVFTTTEGRTRIEKRVDCSSFVIESAQREDEGRYTIKVTNPVGEDVASIFLQVVDVPDPPEAVRITSVGEDWAILVWEPPMYDGGKPVTGYLVERKKKGSQRWMKLNFEVFTETTYESTKMIEGILYEMRVFAVNAIGVSQPSMNTKPFMPIAPTSEPLHLIVEDVTDTTTTLKWRPPNRIGAGGIDGYLVEYCLEGSEEWVPANTEPVERCGFTVKNLPTGARILFRVVGVNIAGRSEPATLAQPVTIREIAEPPKIRLPRHLRQTYIRKVGEQLNLVVPFQGKPRPQVVWTKGGAPLDTSRVHVRTSDFDTVFFVRQAARSDSGEYELSVQIENMKDTATIRIRVVEKAGPPINVMVKEVWGTNALVEWQAPKDDGNSEIMGYFVQKADKKTMEWFNVYERNRHTSCTVSDLIVGNEYYFRVYTENICGLSDSPGVSKNTARILKTGITFKPFEYKEHDFRMAPKFLTPLIDRVVVAGYSAALNCAVRGHPKPKVVWMKNKMEIREDPKFLITNYQGVLTLNIRRPSPFDAGTYTCRAVNELGEALAECKLEVRVPQ
B2: KIAA1602 protein (protein, UniProt Q9HCH0 1-1334)
chain: MSEAMDQPAGGPGNPRPGEGDDGSMEPGTCQELLHRLRELEAENSALAQANENQRETYERCLDEVANHVVQALLNQKDLREECIKLKKRVFDLERQNQMLSALFQQKLQLTTGSLPQIPLTPLQPPSEPPASPSLSSTEGPAAPLPLGHCAGQREVCWEQQLRPGGPGPPAAPPPALDALSPFLRKKAQILEVLRALEETDPLLLCSPATPWRPPGQGPGSPEPINGELCGPPQPEPSPWAPCLLLGPGNLGGLLHWERLLGGLGGEEDTGRPWGPSRGPPQAQGTSSGPNCAPGSSSSSSSDEAGDPNEAPSPDTLLGALARRQLNLGQLLEDTESYLQAFLAGAAGPLNGDHPGPGQSSSPDQAPPQLSKSKGLPKSAWGGGTPEAHRPGFGATSEGQGPLPFLSMFMGAGDAPLGSRPGHPHSSSQVKSKLQIGPPSPGEAQGPLLPSPARGLKFLKLPPTSEKSPSPGGPQLSPQLPRNSRIPCRNSGSDGSPSPLLARRGLGGGELSPEGAQGLPTSPSPCYTTPDSTQLRPPQSALSTTLSPGPVVSPCYENILDLSRSTFRGPSPEPPPSPLQVPTYPQLTLEVPQAPEVLRSPGVPPSPCLPESYPYGSPQEKSLDKAGSESPHPGRRTPGNSSKKPSQGSGRRPGDPGSTPLRDRLAALGKLKTGPEGALGSEKNGVPARPGTEKTRGPGKSGESAGDMVPSIHRPLEQLEAKGGIRGAVALGTNSLKQQEPGLMGDPGARVYSSHSMGARVDLEPVSPRSCLTKVELAKSRLAGALCPQVPRTPAKVPTSAPSLGKPNKSPHSSPTKLPSKSPTKVVPRPGAPLVTKESPKPDKGKGPPWADCGSTTAQSTPLVPGPTDPSQGPEGLAPHSAIEEKVMKGIEENVLRLQGQERAPGAEVKHRNTSSIASWFGLKKSKLPALNRRTEATKNKEGAGGGSPLRREVKMEARKLEAESLNISKLMAKAEDLRRALEEEKAYLSSRARPRPGGPAPGPNTGLGQVQGQLAGMYQGADTFMQQLLNRVDGKELPSKSWREPKPEYGDFQPVSSDPKSPWPACGPRNGLVGPLQGCGKPPGKPSSEPGRREEMPSEDSLAEPVPTSHFTACGSLTRTLDSGIGTFPPPDHGSSGTPSKNLPKTKPPRLDPPPGVPPARPPPLTKVPRRAHTLEREVPGIEELLVSGRHPSMPAFPALLPAAPGHRGHETCPDDPCEDPGPTPPVQLAKNWTFPNTRAAGSSSDPLMCPPRQLEGLPRTPMALPVDRKRSQEPSRPSPTPQGPPFGGSRTPSTSDMAEEGRVASGGPPGLETSESLSDSLYDSLSSCGSQG
B3: Mei1 (protein, UniProt Q5TIA1 1-1274)
chain: MAVRQAATAGTPGPRREEEAALLFERAHYRHDPRWLLPVTPRLCLACALELLPDPGVSLVRKKHMLSCFQDALVRHTSLVTQLVSQDQRVCIHFISVLFGLLCSMEDGSVTDLCIEVLIQITTQLKLEQTIRCLLDECHKELCNMPSMRGSLATLTLLGKLVDAIPALADELVMEHGNLMEHLLRGLVYPSEGIQASVCYLYGKLYSSPVAAEMLSGHFREKLFPLFLSILDGAQTKELQINCLGLLRQLLKYDLFVSMIMNQDGLGESAKNIEGSSGNTSLPLVLKKLLLSRDETLQVASAHCITAVLVHSPAKHASAFIHADIPEFLFEHLSSSSEVLVWSSCNCLTLLVEEPLFFSKCHTVYGIEAVVRSLQGSLKMNNIELHKQGLLLFAEILTRQPEEIKLFTSSAMCRDAGRALQEAVSSPVLEVAAEALKATSAFLRKDHQSTPPVQYGELQALLEAMLNRCAEFSQTLLSRRPLGHASSRDSEKAILQRGKFLLSTLEGFRSACRLAIEFQSEPSAQENPFTAPSAKKEDTLEAFSEFLLSACDSLCIPMVMRHLEQTTHPALMEVFLSILHNLFVIVPHMKEKFSKKLASSSFIRLTLELKARFCSGLSHSALNQVCSNFLYYMCLNLLSAPEKTGPPSKEELSAVSELLQHGLPQISSRSPESLAFLSDRQYMEGAARQRQYCILLLFYLAYIHEDRFVSEAELFEAVQSFLLSLQDQGERPPLVVFKASIYLLAICQDKDNTLRETMVSAIRKFLEGIPDLQLVYTHHPLLLRFFLLYPELMSRYGHRVLELWFFWEESSYEELDDVTSAGQPALPASLVVLFQLLRSIPSILLILLDLIYSSPVDTAHKVLISLRTFLRRNEDIQVGGLIRGHFLLILQRLLVEHGASPSGASGNLPLLLSLLSLMQLRNVSEQELDSVAMKLLHQVSKLCGKCSPTDVDILQPSFNFLYWSLHQTTPSSQKRAAAVLLSSTGLMELLEKMLALTLAKADSPRTALLCSAWLLTASFSAQQHKGSLQVHQTLSVEMDQVLKALSFPKKKAALLSAAILCFLRTALRQSFSSALVALVPSGAQPLPATKDTVLAPLRMSQVRSLVIGLQNLLVQKDPLLSQACVGCLEALLDYLDARSPDIALHVASQPWNRFLLFTLLDAGENSFLRPEILRLMTLFMRYRSSSVLSHEEVGDVLQGVALADLSTLSNTTLQALHGFFQQLQSMGHLADHSMAQTLQASLEGLPPSTSSGQPPLQDMLCLGGVAVSLSHIRN
B4: LRR5 (fibromodulin) (MudPIT-identified) (protein, UniProt Q06828 19-376)
chain: QYEDDPHWWFHYLRSQQSTYYDPYDPYPYETYEPYPYGVDEGPAYTYGSPSPPDPRDCPQECDCPPNFPTAMYCDNRNLKYLPFVPSRMKYVYFQNNQITSIQEGVFDNATGLLWIALHGNQITSDKVGRKVFSKLRHLERLYLDHNNLTRMPGPLPRSLRELHLDHNQISRVPNNALEGLENLTALYLQHNEIQEVGSSMRGLRSLILLDLSYNHLRKVPDGLPSALEQLYMEHNNVYTVPDSYFRGAPKLLYVRLSHNSLTNNGLASNTFNSSSLLELDLSYNQLQKIPPVNTNLENLYLQGNRINEFSISSFCTVVDVVNFSKLQVLRLDGNEIKRSAMPADAPLCLRLASLIEI
B5: Synaptojanin 2A (enzyme, UniProt O15056-3 1-1288)
chain: MALSKGLRLLGRLGAEGDCSVLLEARGRDDCLLFEAGTVATLAPEEKEVIKGQYGKLTDAYGCLGELRLKSGGTSLSFLVLVTGCTSVGRIPDAEIYKITATDFYPLQEEAKEEERLIALKKILSSGVFYFSWPNDGSRFDLTVRTQKQGDDSSEWGNSFFWNQLLHVPLRQHQVSCCDWLLKIICGVVTIRTVYASHKQAKACLVSRVSCERTGTRFHTRGVNDDGHVSNFVETEQMIYMDDGVSSFVQIRGSVPLFWEQPGLQVGSHHLRLHRGLEANAPAFDRHMVLLKEQYGQQVVVNLLGSRGGEEVLNRAFKKLLWASCHAGDTPMINFDFHQFAKGGKLEKLETLLRPQLKLHWEDFDVFTKGENVSPRFQKGTLRMNCLDCLDRTNTVQSFIALEVLHLQLKTLGLSSKPIVDRFVESFKAMWSLNGHSLSKVFTGSRALEGKAKVGKLKDGARSMSRTIQSNFFDGVKQEAIKLLLVGDVYGEEVADKGGMLLDSTALLVTPRILKAMTERQSEFTNFKRIRIAMGTWNVNGGKQFRSNVLRTAELTDWLLDSPQLSGATDSQDDSSPADIFAVGFEEMVELSAGNIVNASTTNKKMWGEQLQKAISRSHRYILLTSAQLVGVCLYIFVRPYHVPFIRDVAIDTVKTGMGGKAGNKGAVGIRFQFHSTSFCFICSHLTAGQSQVKERNEDYKEITQKLCFPMGRNVFSHDYVFWCGDFNYRIDLTYEEVFYFVKRQDWKKLLEFDQLQLQKSSGKIFKDFHEGAINFGPTYKYDVGSAAYDTSDKCRTPAWTDRVLWWRKKHPFDKTAGELNLLDSDLDVDTKVRHTWSPGALQYYGRAELQASDHRPVLAIVEVEVQEVDVGARERVFQEVSSFQGPLDATVVVNLQSPTLEEKNEFPEDLRTELMQTLGSYGTIVLVRINQGQMLVTFADSHSALSVLDVDGMKVKGRAVKIRPKTKDWLKGLREEIIRKRDSMAPVSPTANSCLLEENFDFTSLDYESEGDILEDDEDYLVDEFNQPGVSDSELGGDDLSDVPGPTALAPPSKSPALTKKKQHPTYKDDADLVELKRELEAVGEFRHRSPSRSLSVPNRPRPPQPPQRPPPPTGLMVKKSASDASISSGTHGQYSILQTARLLPGAPQQPPKARTGISKPYNVKQIKTTNAQEAEAAIRCLLEARGGASEEALSAVAPRDLEASSEPEPTPGAAKPETPQAPPLLPRRPPPRVPAIKKPTLRRTGKIVFCSRSQASQPCLLLQRHEFVRTVAAQRLASVDTSGSSV
B6: Aspartate beta-hydroxylase isoform a (enzyme, UniProt Q12797-1 1-758)
chain: MAQRKNAKSSGNSSSSGSGSGSTSAGSSSPGARRETKHGGHKNGRKGGLSGTSFFTWFMVIALLGVWTSVAVVWFDLVDYEEVLGKLGIYDADGDGDFDVDDAKVLLGLKERSTSEPAVPPEEAEPHTEPEEQVPVEAEPQNIEDEAKEQIQSLLHEMVHAEHVEGEDLQQEDGPTGEPQQEDDEFLMATDVDDRFETLEPEVSHEETEHSYHVEETVSQDCNQDMEEMMSEQENPDSSEPVVEDERLHHDTDDVTYQVYEEQAVYEPLENEGIEITEVTAPPEDNPVEDSQVIVEEVSIFPVEEQQEVPPETNRKTDDPEQKAKVKKKKPKLLNKFDKTIKAELDAAEKLRKRGKIEEAVNAFKELVRKYPQSPRARYGKAQCEDDLAEKRRSNEVLRGAIETYQEVASLPDVPADLLKLSLKRRSDRQQFLGHMRGSLLTLQRLVQLFPNDTSLKNDLGVGYLLIGDNDNAKKVYEEVLSVTPNDGFAKVHYGFILKAQNKIAESIPYLKEGIESGDPGTDDGRFYFHLGDAMQRVGNKEAYKWYELGHKRGHFASVWQRSLYNVNGLKAQPWWTPKETGYTELVKSLERNWKLIRDEGLAVMDKAKGLFLPEDENLREKGDWSQFTLWQQGRRNENACKGAPKTCTLLEKFPETTGCRRGQIKYSIMHPGTHVWPHTGPTNCRLRMHLGLVIPKEGCKIRCANETKTWEEGKVLIFDDSFEHEVWQDASSFRLIFIVDVWHPELTPQQRRSLPAI

target: 3XFLAG-TEV-CBP-Cul3 (human) (UniProt Q13618); experiment: affinity purification with mass spectrometry; tandem affinity purification of 3XFLAG-TEV-CBP-Cul3 from lysate of transfected HEK293 cells (RIPA buffer): anti-FLAG M2 beads, TEV cleavage, calmodulin beads, elution with EGTA; MudPIT LC/MS-MS; proteins also found with 3XFLAG-TEV-CBP-actin removed

binding, binds:
B1, B2, B3, B4, B5, B6
